In article PMC5345068 (Scientific Reports, 2017):

Legend:
3T3 cells = assay: confocal fluorescence microscopy, 3T3; assay type: cell-based, mouse; details: 25 μM, 4 hours, excitation 488 nm; compared among treatments, Fig. S-14
[1] = general procedure: Fmoc solid-phase peptide synthesis; 2-chlorotrityl chloride resin (1.0–1.2 mmol/g); HBTU; details: conjugation step

| Compound | fluorescent intensity of 3T3 cells (confocal) (3T3 cells) | conjugation yield [1] |
| --- | --- | --- |
| COc1cc(/C=C/C(=O)CC(=O)/C=C/c2ccc(O)c(OC)c2)ccc1O [Cur, Curcumin] | similar |  |
| COc1cc(/C=C/C(=O)CC(=O)/C=C/c2ccc(OC(=O)CCCC(=O)NCCCC[C@H](NC(=O)[C@H](Cc3ccc(O)cc3)NC(=O)[C@H](Cc3ccccc3)NC(=O)[C@H](Cc3ccccc3)NC(=O)CNC(=O)[C@@]3(C)CC[C@]4(C)CC[C@]5(C)C(=CC(=O)[C@@H]6[C@@]7(C)CC[C@H](O)C(C)(C)[C@@H]7CC[C@]65C)[C@@H]4C3)C(=O)N[C@@H](CCC(=O)O)C(=O)NCCSSCCNC(=O)CCC(=O)N[C@@H](CCC(=O)O)C(=O)N[C@@H](CCCNC(=N)N)C(=O)NCC(=O)N[C@@H](CC(=O)O)C(=O)O)c(OC)c2)ccc1O [GA-Cur, GA–GFFYK(Cur)E-ss-ERGD] | similar |  |
| COc1cc(/C=C/C(=O)CC(=O)/C=C/c2ccc(OC(=O)CCCC(=O)NCCCC[C@H](NC(=O)[C@H](Cc3ccc(O)cc3)NC(=O)[C@H](Cc3ccccc3)NC(=O)[C@H](Cc3ccccc3)NC(=O)CNC(=O)Cc3ccc4ccccc4c3)C(=O)N[C@@H](CCC(=O)O)C(=O)NCCSSCCNC(=O)CCC(=O)N[C@@H](CCC(=O)O)C(=O)N[C@@H](CCCNC(=N)N)C(=O)NCC(=O)N[C@@H](CC(=O)O)C(=O)O)c(OC)c2)ccc1O [Nap-Cur, Nap–GFFYK(Cur)E-ss-ERGD] | similar |  |
| GA–GFFYK(Cur)E-ss-ERGD |  | about 20% |
